Our source for the cell number change and AC50 values is PubChem BioAssay AID2685 (National Center for Advancing Translational Sciences (NCATS), 2010).

A short description of this experiment: qHTS Assay for Lipid Storage Modulators in Drosophila S3 Cells.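 For cell number change: cells counted by Cell Tracker Red CMTPX staining in the red channel.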 The following applies: BODIPY lipid droplet fluorescence, 18-24 h; for cell number change: measured here: cell count max response, cells fed with added oleic acid. The procedure, abridged:
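Drosophila S3 cells loaded with oleic acid (400 uM, as added) and compounds at several concentrations; lipid droplets imaged by 488-nm laser-scanning cytometry, 500–530 nm intensity and object ratio to cell channel. Percent activity normalized to 20 uM Triacsin C.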

[1] abbreviates: measured here: lipid fluorescence (Fed channel) AC50, cells fed with added oleic acid.
[2] abbreviates: measured here: cell number channel AC50, cells fed with added oleic acid.

SMILES strings stand for the structures. This is one part of the list. Further columns of the screen follow, without active or inactive calls. Compounds called inactive in the main read-out are mostly missing here. Potencies come from curve fits of mixed quality, noted in brackets.

Consider `O=C1C2C3CCC(C3NCc3ccccc3)C2C(=O)N1Cc1ccccc1` (stereo not drawn), for which the cell number change turned out to be 9.66%.

By AC50 is commonly meant the midpoint of the concentration-response curve, whichever way the signal moves. A lower AC50 goes with activity at low concentration. As for `O=c1[nH]c(CSc2nnc(-c3ccco3)n2-c2ccccc2)nc2sc3c(c12)CCC3`, the cell number change came to 2.29%. Besides, under setting [1], the concentration at half-maximal activity (AC50) is 0.291 µM [rising, full curve].

On to `Cc1ccc(C(=O)CC(=O)c2ccccc2C)c(O)c1`, for which the cell number change is -45.1%. The AC50 under setting [2] was 29.1 µM [falling, single point]. Under setting [1], the AC50 is 18.4 µM [falling, partial curve].

For `O=C(NCC(=O)N1CCN(C/C=C/c2ccccc2)CC1)c1ccc(OC(F)F)cc1`, the cell number change is -13.2%.

Regarding `CCCC(=O)NC(=S)Nc1ccc(CN2CCOCC2)cc1`, the cell number change is -37.5%. Besides, the AC50 under setting [2] was 2.31 µM [rising, partial curve]. The concentration at half-maximal activity (AC50) under setting [1] was 2.91 µM [rising, partial curve].

As for `CCn1c(=O)n(CC)c2cc(S(=O)(=O)Nc3ccccc3C)c(C)cc21`, the cell number change was -55.2%. Moreover, the AC50 under setting [2] was 25.9 µM [falling, single point]. The AC50 under setting [1] is 29.1 µM [falling, single point].

Turning to `CC1(C)CC(=O)C(N=Nc2cc(C(F)(F)F)ccc2Cl)=C(O)C1`, the cell number change came out at 0.488%. In addition, under setting [1], the AC50 was 0.00517 µM [falling, full curve, poor fit].

Regarding `COc1ccc(NC(=O)c2ccccc2C)c(OC)c1`, the cell number change is -20.5%.

With `CC1CC(=O)N(CC(=O)NCc2ccccc2)c2ccccc2S1(=O)=O` (stereo not drawn), the cell number change is -16.4%. Also, the AC50 under setting [1] is 18.4 µM [rising, partial curve].

For `CC(=O)c1ccc(OCc2cc(C(=O)N3CCC(c4ccncc4)CC3)no2)cc1`, the cell number change was -23.5%. Besides, the AC50 under setting [1] is 29.1 µM [falling, single point].

Regarding `CCOc1cc(C2C(C(C)=O)=C(C)Nc3ncnn32)ccc1O` (stereo not drawn), the cell number change came to 23%.

With `O=C(c1ccc(CS(=O)(=O)c2c(Cl)cccc2Cl)o1)N1CCN(c2ccccn2)CC1`, the cell number change is -27.1%. In addition, the AC50 under setting [1] was 29.1 µM [falling, single point].

As to `O=C(NCc1ccc2c(c1)OCO2)c1ccccc1`, the cell number change was determined as 68.9%. Besides, the AC50 under setting [2] is 5.17 µM [rising, full curve].

In the case of `COc1ccc(C2C3=C(CC(C)(C)CC3=O)Oc3ncn(Cc4ccccc4)c(=N)c32)cc1` (stereo not drawn), the cell number change was determined as 79.5%. Also, the AC50 under setting [2] is 16.4 µM [rising, single point]. The AC50 under setting [1] is 0.0146 µM [rising, full curve, poor fit].

Regarding `CC(=O)NC12CC3CC(C1)CC(C(=O)N1CCN(S(=O)(=O)c4ccc(Cl)s4)CC1)(C3)C2`, the cell number change worked out at 15.3%.

In the case of `O=C(NCc1ccc2c(c1)OCO2)c1cccc([N+](=O)[O-])c1`, under setting [1], the AC50 was 0.116 µM [rising, full curve, poor fit].

Regarding `COc1cc2c(cc1OC)CN(c1nc(CN3CCCC3)nc3sc(C)c(C)c13)CC2`, the AC50 under setting [1] was 0.058 µM [rising, full curve].

As to `O=C(CNC(=O)C1CCCCC1)OCC(=O)c1ccc(F)cc1`, the cell number change is -6.35%.

As to `CS(=O)(=O)N1CCc2ccc(NC(=O)C3CCCO3)cc2C1` (stereo not drawn), the cell number change stood at 10.4%.

For the compound `COc1ccc(CCN2C(=O)C3CC(C)=C(C)CC3C2=O)cc1OC` (stereo not drawn), the cell number change was -80%. Under setting [2], the AC50 is 23.1 µM [falling, partial curve, poor fit].

As for `COc1ccc(S(=O)(=O)Nc2cc(SCC(=O)O)c(O)c3ccccc23)cc1`, the cell number change is -12.5%.

`O=C(N/N=C/c1cc([N+](=O)[O-])ccc1O)C(O)(c1ccccc1)c1ccccc1`: the cell number change was -9.07%. Besides, the half-maximal activity concentration (AC50) under setting [1] was 29.1 µM [falling, single point].

In the case of `CCCc1ccc(OCc2nc(-c3ccc(NC(=O)c4cccs4)cc3)no2)cc1`, the cell number change was found to be 2.67%. In addition, the AC50 under setting [1] is 6.51 µM [falling, single point].

Consider `COc1ccccc1CNC(=O)c1cn(C)c2ccc(S(=O)(=O)N3CCCC3)cc2c1=O`, for which the cell number change was -11.5%. The AC50 under setting [1] is 1.84 µM [rising, partial curve].

Regarding `COc1ccc(Cl)cc1NC(=S)N1CCCCCC1`, the cell number change was -13.9%. For the same compound, the AC50 under setting [1] was 29.1 µM [falling, single point].

`O=S(=O)(NC(=S)Nc1ccccc1)c1ccc(F)cc1`: the cell number change was -15.7%. Besides, the AC50 under setting [1] is 4.11 µM [falling, full curve, poor fit].

In the case of `Cc1cccc(C)c1NC(=O)c1c(O)c2ccccc2[nH]c1=O`, the cell number change is -42%. The AC50 under setting [2] was 29.1 µM [falling, single point].

With `Cc1ccc(C(=O)c2c3ccccc3[n+]([O-])n2CCO)cc1`, the cell number change was -13.1%. Besides, the AC50 under setting [1] was 0.146 µM [falling, full curve, poor fit].

Regarding `COC(=O)c1cc(OC)c(OC)cc1NC(=O)Nc1ccc(OC)cc1`, the cell number change worked out at 32.1%. For the same compound, under setting [2], the AC50 was 29.1 µM [rising, single point]. The AC50 under setting [1] is 6.51 µM [falling, single point].

Take `COc1cccc(N2CCN(c3ccc4nnc(CCC(=O)Nc5ccc(F)cc5F)n4n3)CC2)c1`: the cell number change was -31.7%. For the same compound, under setting [2], the AC50 is 3.26 µM [falling, partial curve, poor fit]. In addition, under setting [1], the AC50 is 0.651 µM [falling, full curve].

On to `COC(=O)C1=C(C)NC(=S)NC1c1sccc1C` (stereo not drawn), for which the cell number change was determined as 0.773%.

Turning to `Cc1c(Cl)cccc1NC(=S)N/N=C/c1ccccc1Cl`, the cell number change was -0.845%. Also, the AC50 under setting [1] is 20.6 µM [falling, single point].

With `COc1cccc(CNC(=O)c2ccc(Cl)c(S(=O)(=O)N3CCOCC3)c2)c1`, the cell number change is -3.35%. Moreover, the AC50 under setting [1] is 0.146 µM [falling, full curve, poor fit].

On to `O=C1/C(=C/c2cccnc2)Oc2cc(OS(=O)(=O)c3ccccc3)ccc21`, for which the cell number change is -8.59%. In addition, the AC50 under setting [1] is 2.31 µM [rising, partial curve].

`COc1cc(/C=C(\C#N)c2nc3c(s2)CCCC3)ccc1O`: the cell number change is -36.8%. Moreover, the AC50 under setting [2] is 20.6 µM [falling, single point].

Regarding `O=C(CSc1nnc(C2CC2)n1C1CC1)c1cc(F)ccc1F`, the cell number change is -3.31%.

With `COCCn1c(SCC(=O)c2[nH]c(C)c(C(C)=O)c2C)nc2ccccc2c1=O`, the cell number change worked out at 3.72%. The AC50 under setting [1] was 0.00461 µM [rising, full curve, poor fit].

Regarding `Cn1c(=O)c2c(nc(CN3CCN(C(=O)c4ccco4)CC3)n2Cc2cccc(Cl)c2)n(C)c1=O`, the cell number change is -21.3%. Also, the AC50 under setting [1] is 0.366 µM [rising, full curve, poor fit].

For `CC1CCCCN1C(=O)CN1C(=O)CN(C)C(=O)c2ccccc21` (stereo not drawn), the cell number change came to 38.4%. For the same compound, under setting [2], the AC50 is 29.1 µM [rising, single point]. For the same compound, the AC50 under setting [1] was 0.00461 µM [rising, full curve, poor fit].
